# PubChem BioAssay AID1347423 (Functional Genomics Laboratory (NCATS/FGL), 2020)
# Hit rate of the full screen: of about 52,000 sequences, about 210 (0.4%) were called active.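 Rule for the calls: active = gene whose silencing raises cell survival under the drug, median off-target-corrected z-score across its silencing RNAs 2 or more; inactive = the rest.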 Some of the results follow.
# Test: Resistance to Poly (ADP-Ribose) Polymerase inhibitor: Gene Identification via Genome-wide siRNA Screen
# Settings: mouse BRCA2 R2336H ES cells, olaparib, CellTiter-Glo viability; hits give high values
# How it was run: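 Genome-wide siRNA screen (3 siRNAs/gene, 20 nM) in mouse ES cells carrying hypomorphic BRCA2 R2336H; olaparib 500 nM added 48 h post-transfection, CellTiter-Glo viability 72 h later. Normalized to plate-median negative control; MAD z-scores, gene median, seed-adjusted.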
row,Sequence,z-score
1,GGUGGAGACAGAAAUCCAATT against Amot,inactive: 0.963
2,GGAGUUUUAGGAUAUUCGATT against Adcyap1r1,inactive: 0.495
3,GCUCUCCCAUCUUUUCUAUTT against Lenep,inactive: -0.476
4,GCACUUUUGUAAAAAUCACTT against D6Ertd245e,inactive: -0.0742
5,CACGGGCAUCCUUGACUCCTT against Mbp,inactive: 0.994
6,GCACGAAGAACCACACAAGTT against 5830484A20Rik,inactive: -0.63
7,GGGAUGACCUGCCAUUCAUTT against Atp7a,inactive: 0.448
8,CCACUGUUUAAUAACCCUATT against Sc5d,inactive: -1.57
9,GCAAAGCAUUGCUCUGAGGTT against Msx1,inactive: 0.43
10,GCGGAAGUUAGAGUCGCUGTT against AK122525,inactive: 0.105
11,GGUUUGUAUGCUAUAGUUUTT against Cldn11,inactive: -0.628
12,GGGUCUAUUUAUUUAGUAGTT against Alg8,inactive: -0.485
13,GGAACUUACACAUUUGUUCTT against Tnfsf13b,inactive: -0.466
14,GGUCUAAAGUACAUCCACUTT against Mapk13,inactive: 1.4
15,GGGAAUGAAAAGUCAAAAGTT against Stard7,inactive: 0.371
16,GGUGAUCAACCUGUACAAGTT against Gga1,inactive: -0.716
17,CCCAACAAAUUGAAACAUATT against D330013L20Rik,inactive: 1.56
18,GGUUAAAGUGUAUUUACAGTT against Fkbp14,inactive: 0.226
19,UGACAUAUCUUAAAUGUGGTT against Tas2r121,inactive: 0.102
20,CCCAUUUUGAAGUGCUACCTT against Cyp27b1,inactive: 0.733
21,CCCUCCAUGGAAAUGACAUTT against Slit3,inactive: 0.0338
22,GGCUGUCUUCAUCUUAGAUTT against Copz2,inactive: 1.24
23,GGGAGCAACUGUGUCAAAUTT against Ocsp,inactive: 1.73
24,CGACGACAUCAUAAAUUUCTT against Rapgef1,inactive: 1.39
25,GGGAUGCUGUAGAUGGAAUTT against Olfr978,inactive: 1.41
26,CCUGUCCAAUCAUCACAAGTT against 9130022K13Rik,inactive: -0.395

row,Sequence,z-score
1,GCACUUGACAAGCAACAGUTT against Jup,inactive: -0.42
2,GGUUAAAGUCUGUGGAUUUTT against Laf4l,inactive: 0.163
3,CCACUGGACAGGAACAAAGTT against Rims1,inactive: 0.0579
4,GGACUUUGAUCUGGAGCCATT against C1rl,inactive: -1.36
5,GGCAUCCAAUAAACAUAUUTT against Selpl,inactive: -1.53
6,GGUACACAAAUGCUCGGGATT against Rnf130,inactive: 0.0469
7,GGCCUCUGACUUUAAAGGCTT against 4930553M18Rik,inactive: 0.206
8,GGUCAUUCCUGUGCACCAGTT against 5830406J20Rik,inactive: 0.616
9,GGUUUUCUUCAUUCUUUCCTT against Zfp512,inactive: 1.51
10,GCUGGUCUUCUCUAUCUUATT against Olfr744,inactive: 0.189
11,GCUCAUCUACCACCUCACUTT against AI646023,inactive: -2.77
12,GGUGUUUGUUUCUAACUUCTT against Glcci1,inactive: 0.883
13,GGCCUCUUAUGUCAACCUGTT against Lamr1,inactive: -3.14
14,GCAGUUAAAUGGACUAUCATT against BC017133,inactive: -2.33
15,CGGUCCCUAAGAAACUCUGTT against A630005A06Rik,inactive: -0.717
16,GCUUCUAGUCAACAUCCAGTT against Klf15,inactive: -1.72
17,GGAACCUAACAGAGAAACATT against Prpsap2,inactive: -0.531
18,CCACGAUAGCACCUAUUUUTT against Gucy2c,inactive: 0.911
19,CCAAGGAGCAUUCUUUGGUTT against 1700024B05Rik,inactive: 1.34
20,GGCUUUUUAUUCUCAGCCUTT against 2410005O16Rik,inactive: 1.03
21,GCUAAGUCGGAUGAUAGAATT against Ttc16,inactive: -0.611
22,GCACAAAGUCGACAAUGGATT against Csnk1e,inactive: -0.661
23,UUCAUGUAGGUCUACUAUUTT against Olfr203,inactive: 1.72
24,CCUAUUCAAUUCAGUUCUATT against Slc36a4,inactive: 0.182
25,GGUGUCUACGAGUGCUUCGTT against Gpbar1,inactive: -0.151
26,CCCAAUGCAAGACAUUAAGTT against Lrrc27,inactive: 0.681

row,Sequence,z-score
1,GGUAUAAAGACCUUUUUUCTT against Bcl7a,inactive: 0.135
2,GGGAGAAGCAAUUUUUAACTT against Gpr34,inactive: 0.386
3,CGGGAUCAGGUUUCACUGATT against BC067068,inactive: -0.289
4,GCUGAUUUGUGGGAUCUGUTT against Trim13,inactive: -0.855
5,GGAAAGAUGGUUUUUGUUUTT against Smug1,inactive: 1.22
6,CCAAGGUUGAGAACAGAUGTT against Rom1,inactive: -1.96
7,GGUGGAAUGUCACUACACUTT against 1810009B06Rik,inactive: 0.241
8,GGGAUAUUCGAUCCUCUAGTT against Slc22a4,inactive: -1.11
9,GCCAAGAGCAUAUCUUAGUTT against Dscr1,inactive: -0.959
10,GGAGAAAAAAGCAGUGGUUTT against Tk2,inactive: -0.541
11,GGAAGUGUAAAGAGUUUAUTT against AI427515,inactive: 1.15
12,CCCGGAAUGUUUAGUAUCGTT against 5830467P10Rik,inactive: -0.788
13,GGAACUGUCACAACUGCUATT against Acat3,inactive: -0.221
14,GGCGAGUUUAUAGAAGAAATT against Phf19,inactive: 0.5
15,GGGACCGUGAAGAAAAUUUTT against 1810008K16Rik,inactive: 0.713
16,CGGGAUGACUACAAUCUGGTT against Ssbp3,inactive: 2.38
17,GGAGAAGAGAUCCCUGAACTT against Neurod2,inactive: 2
18,GGCCGCUACCAGUUCAAUUTT against Hapln2,inactive: -1.45
19,GCGGCAUAAUGGAUAUGACTT against Ckmt1,inactive: 0.669
20,GCAUCUAUGAUGCAUUUGUTT against Tlr4,inactive: 0.771
21,GGCACUAAAAGAAGAGAUCTT against 1810056O20Rik,inactive: -0.585
22,GGUUUAUAUUCUUUGUGGATT against Kcnj1,inactive: 2.42
23,GGUCACUGAAUUGUCAAUCTT against Polr3h,inactive: -0.193
24,GGUCAAUGCCUUUGAGUUUTT against Cdc42ep1,inactive: 1.29
25,GGAUAGGACAGAGAUAAAATT against Wnt2b,inactive: -0.391
26,CGUGUUUGCAUAAUGUUUATT against Arih1,inactive: -0.585

row,Sequence,z-score
1,GCAGCCUAUGGAAGAUCACTT against Tle4,inactive: 0.338
2,GCCUCAUGAAUGACCACACTT against Klk21,inactive: 0.685
3,GGACUCGUAGCGAUAAUGATT against Tmem20,inactive: 0.387
4,GGGUACGAUCGUGUGUUGUTT against Rpl8,inactive: -3.13
5,CCUGACGAUCAAAUCACUGTT against 1110012M11Rik,inactive: 0.345
6,GCUGAUUUCUCAAACAUGATT against Serpinb10,inactive: -0.311
7,GGUCAACAGAAUUGAUUCUTT against D730039F16Rik,inactive: -0.138
8,GCAUGAAGUUGCACAUCCCTT against Cox8b,inactive: -0.0409
9,GGACCAUCCAUUGUGAUCUTT against Slc7a3,inactive: -0.768
10,GGGCCUUAAUUUUCCUUUUTT against Podxl,inactive: -0.404
11,CGGCAGAAGGGUUUUUAUGTT against Rnf126,inactive: 1.26
12,CCUUGCACUCAGUCCAUGATT against 2010003O18Rik,inactive: -0.296
13,GGGAUCAACAUUUACCGAATT against Ablim1,inactive: 0.3
14,GGAACCAGUCGACUACUAUTT against Sstr1,inactive: 0.325
15,CCCGGAGUACAGUGACUUUTT against Prss11,inactive: 0.147
16,GGCAAACCUGCAAACAUCUTT against 1700049K14Rik,inactive: 0.774
17,GGCUGUGAACAAAUUUGUATT against Egfl3,inactive: -0.748
18,GGUCUCAGAAGACCUAGAUTT against Mylpf,inactive: -1.08
19,GGUUCUCUGUGUGAUAGCCTT against Ms4a10,inactive: 0.41
20,GGUCGUGGUGAAAACUAAGTT against Nsg1,inactive: -0.136
21,CCCGAGAUGAGGAACUUUUTT against A930038C07Rik,inactive: -1.45
22,GGUAGUACCACUAACCAAATT against Nrl,inactive: -0.818
23,GCACUUGCCAGGUACUAUGTT against Cnga1,inactive: -1.25
24,GGACUCAAGGAACCAAAAUTT against Rps3a,inactive: -2.99
25,CGAUUAUGACCGAUAUAGATT against Fusip1,inactive: 0.823
26,GGUUUUCCUGUUCAAUUCUTT against Olfr586,inactive: 0.331

# Fetched one by one from the entries so far:
row,Sequence,z-score
1,GCACUUGACAAGCAACAGUTT against Jup,inactive: -0.42
6,GGUACACAAAUGCUCGGGATT against Rnf130,inactive: 0.0469
20,CCCAUUUUGAAGUGCUACCTT against Cyp27b1,inactive: 0.733

# As entered above.
# z-score with CCUUGCACUCAGUCCAUGATT against 2010003O18Rik reads inactive: -0.296
# z-score with GGGAUCAACAUUUACCGAATT against Ablim1 reads inactive: 0.3
# z-score with CCUGACGAUCAAAUCACUGTT against 1110012M11Rik reads inactive: 0.345
# z-score with GGCUGUCUUCAUCUUAGAUTT against Copz2 reads inactive: 1.24
